Laboratory results as given in article PMC7042714.
No constants are given. Whether binding was seen depends on the method and setting. For some assays here: Binding seen in cells or lysates may run through a third protein. Some entries that bind do so weakly or less than the wild type. One block for each binder: values may come before it.

By UniProt entry, the sequences of proteins in these tests, tags left out.
UniProt Q9BVL2: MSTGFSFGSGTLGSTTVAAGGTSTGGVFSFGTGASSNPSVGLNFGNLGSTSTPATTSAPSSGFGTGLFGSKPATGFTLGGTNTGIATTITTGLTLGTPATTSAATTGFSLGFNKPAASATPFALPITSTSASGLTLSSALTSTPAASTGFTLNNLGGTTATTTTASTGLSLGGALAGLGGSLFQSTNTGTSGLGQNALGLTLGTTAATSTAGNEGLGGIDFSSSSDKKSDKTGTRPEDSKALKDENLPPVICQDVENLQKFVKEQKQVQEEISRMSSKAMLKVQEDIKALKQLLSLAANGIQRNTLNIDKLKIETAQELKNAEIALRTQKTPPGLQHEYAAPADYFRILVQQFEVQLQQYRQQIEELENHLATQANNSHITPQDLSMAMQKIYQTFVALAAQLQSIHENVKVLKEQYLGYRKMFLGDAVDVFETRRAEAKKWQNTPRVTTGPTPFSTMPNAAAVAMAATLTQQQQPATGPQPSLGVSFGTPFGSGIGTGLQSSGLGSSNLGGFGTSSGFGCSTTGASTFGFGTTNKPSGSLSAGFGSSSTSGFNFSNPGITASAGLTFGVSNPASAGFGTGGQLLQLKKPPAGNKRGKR
UniProt Q15554: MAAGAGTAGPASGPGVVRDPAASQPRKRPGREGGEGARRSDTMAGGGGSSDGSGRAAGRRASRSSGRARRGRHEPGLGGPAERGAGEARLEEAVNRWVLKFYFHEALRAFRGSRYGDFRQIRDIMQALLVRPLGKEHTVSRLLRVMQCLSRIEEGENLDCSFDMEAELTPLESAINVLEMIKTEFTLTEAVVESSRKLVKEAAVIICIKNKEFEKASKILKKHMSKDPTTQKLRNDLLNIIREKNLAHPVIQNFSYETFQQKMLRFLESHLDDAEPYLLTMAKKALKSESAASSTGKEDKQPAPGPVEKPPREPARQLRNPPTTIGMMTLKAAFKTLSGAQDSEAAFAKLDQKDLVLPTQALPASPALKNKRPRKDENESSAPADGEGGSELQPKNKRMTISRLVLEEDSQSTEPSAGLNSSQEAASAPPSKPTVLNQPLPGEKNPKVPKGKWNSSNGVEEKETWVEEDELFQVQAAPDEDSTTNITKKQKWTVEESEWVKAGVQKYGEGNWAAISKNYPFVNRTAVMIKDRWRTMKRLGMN

Legend:
[1] = target: T1, NUP93 (human (endogenous in HeLa)) (UniProt Q8N1F7); test: SEC; SEC-SWATH-MS: native extract (0.5% NP-40, freeze-thaw) of HeLa CCL2 cells synchronized in interphase (double thymidine block) or mitosis (thymidine, nocodazole, shake-off); SRT-C-SEC 500 column, 50 mM HEPES pH 7.5, 150 mM NaCl, 0-4°C; 65 fractions profiled by SWATH-MS, triplicates; association inferred from co-elution
T1 sequence: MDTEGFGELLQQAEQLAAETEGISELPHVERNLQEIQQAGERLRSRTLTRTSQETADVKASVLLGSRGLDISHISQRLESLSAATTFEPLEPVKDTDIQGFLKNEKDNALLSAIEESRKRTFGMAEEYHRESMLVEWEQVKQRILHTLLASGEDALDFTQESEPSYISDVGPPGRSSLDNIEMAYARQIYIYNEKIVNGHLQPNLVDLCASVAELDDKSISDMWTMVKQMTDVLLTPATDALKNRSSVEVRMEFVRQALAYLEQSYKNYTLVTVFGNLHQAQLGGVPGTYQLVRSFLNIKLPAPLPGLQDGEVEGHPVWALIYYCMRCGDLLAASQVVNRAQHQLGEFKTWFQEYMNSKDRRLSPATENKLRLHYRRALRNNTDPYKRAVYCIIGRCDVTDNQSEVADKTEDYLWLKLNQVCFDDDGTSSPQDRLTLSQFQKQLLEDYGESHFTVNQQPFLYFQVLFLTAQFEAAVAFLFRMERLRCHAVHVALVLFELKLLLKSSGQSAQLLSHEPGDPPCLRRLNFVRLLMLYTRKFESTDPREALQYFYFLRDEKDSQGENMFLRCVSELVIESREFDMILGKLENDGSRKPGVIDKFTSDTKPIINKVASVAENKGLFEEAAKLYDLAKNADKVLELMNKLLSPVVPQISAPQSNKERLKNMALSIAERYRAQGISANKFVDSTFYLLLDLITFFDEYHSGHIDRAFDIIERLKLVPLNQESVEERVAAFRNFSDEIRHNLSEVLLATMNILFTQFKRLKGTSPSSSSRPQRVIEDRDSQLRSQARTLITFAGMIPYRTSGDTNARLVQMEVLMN

HA-Strep-tagged NUP58 = HA-Strep-tagged NUP58 (UniProt Q9BVL2); test: pull-down; HA-Strep-NUP58 captured on StrepTactin Sepharose from lysate of HeLa Flp-In T-REx cells synchronized in interphase or mitosis; 25 mM Tris-HCl pH 7.6, 125 mM NaCl, 2 mM MgCl2, 1 mM DTT, 0.5% NP-40, 4°C; biotin elution; immunoblotting; HA-Strep-GFP as control bait
[2] = target: TRF2 (human (endogenous in HeLa)) (UniProt Q15554); test: SEC; SEC-SWATH-MS: native extract (0.5% NP-40, freeze-thaw) of HeLa CCL2 cells synchronized in interphase (double thymidine block) or mitosis (thymidine, nocodazole, shake-off); SRT-C-SEC 500 column, 50 mM HEPES pH 7.5, 150 mM NaCl, 0-4°C; 65 fractions profiled by SWATH-MS, triplicates; association inferred from co-elution

B2: NUP93 (protein, UniProt Q8N1F7 1-819)
chain: T1 sequence
binding (HA-Strep-tagged NUP58): binds

B4: RAP1 (protein, UniProt Q9NYB0 1-399)
chain: MAEAMDLGKDPNGPTHSSTLFVRDDGSSMSFYVRPSPAKRRLSTLILHGGGTVCRVQEPGAVLLAQPGEALAEASGDFISTQYILDCVERNERLELEAYRLGPASAADTGSEAKPGALAEGAAEPEPQRHAGRIAFTDADDVAILTYVKENARSPSSVTGNALWKAMEKSSLTQHSWQSLKDRYLKHLRGQEHKYLLGDAPVSPSSQKLKRKAEEDPEAADSGEPQNKRTPDLPEEEYVKEEIQENEEAVKKMLVEATREFEEVVVDESPPDFEIHITMCDDDPPTPEEDSETQPDEEEEEEEEKVSQPEVGAAIKIIRQLMEKFNLDLSTVTQAFLKNSGELEATSAFLASGQRADGYPIWSRQDDIDLQKDDEDTREALVKKFGAQNVARRIEFRKK
binding [2]: binds

More lines, now with the values ahead:

binding [1]: binds
B1: NUP155 (protein, UniProt O75694 1-1391)
chain: MPSSLLGAAMPASTSAAALQEALENAGRLIDRQLQEDRMYPDLSELLMVSAPNNPTVSGMSDMDYPLQGPGLLSVPNLPEISSIRRVPLPPELVEQFGHMQCNCMMGVFPPISRAWLTIDSDIFMWNYEDGGDLAYFDGLSETILAVGLVKPKAGIFQPHVRHLLVLATPVDIVILGLSYANLQTGSGVLNDSLSGGMQLLPDPLYSLPTDNTYLLTITSTDNGRIFLAGKDGCLYEVAYQAEAGWFSQRCRKINHSKSSLSFLVPSLLQFTFSEDDPILQIAIDNSRNILYTRSEKGVIQVYDLGQDGQGMSRVASVSQNAIVSAAGNIARTIDRSVFKPIVQIAVIENSESLDCQLLAVTHAGVRLYFSTCPFRQPLARPNTLTLVHVRLPPGFSASSTVEKPSKVHRALYSKGILLMAASENEDNDILWCVNHDTFPFQKPMMETQMTAGVDGHSWALSAIDELKVDKIITPLNKDHIPITDSPVVVQQHMLPPKKFVLLSAQGSLMFHKLRPVDQLRHLLVSNVGGDGEEIERFFKLHQEDQACATCLILACSTAACDREVSAWATRAFFRYGGEAQMRFPTTLPPPSNVGPILGSPVYSSSPVPSGSPYPNPSFLGTPSHGIQPPAMSTPVCALGNPATQATNMSCVTGPEIVYSGKHNGICIYFSRIMGNIWDASLVVERIFKSGNREITAIESSVPCQLLESVLQELKGLQEFLDRNSQFAGGPLGNPNTTAKVQQRLIGFMRPENGNPQQMQQELQRKFHEAQLSEKISLQAIQQLVRKSYQALALWKLLCEHQFTIIVAELQKELQEQLKITTFKDLVIRDKELTGALIASLINCYIRDNAAVDGISLHLQDICPLLYSTDDAICSKANELLQRSRQVQNKTEKERMLRESLKEYQKISNQVDLSNVCAQYRQVRFYEGVVELSLTAAEKKDPQGLGLHFYKHGEPEEDIVGLQAFQERLNSYKCITDTLQELVNQSKAAPQSPSVPKKPGPPVLSSDPNMLSNEEAGHHFEQMLKLSQRSKDELFSIALYNWLIQVDLADKLLQVASPFLEPHLVRMAKVDQNRVRYMDLLWRYYEKNRSFSNAARVLSRLADMHSTEISLQQRLEYIARAILSAKSSTAISSIAADGEFLHELEEKMEVARIQLQIQETLQRQYSHHSSVQDAVSQLDSELMDITKLYGEFADPFKLAECKLAIIHCAGYSDPILVQTLWQDIIEKELSDSVTLSSSDRMHALSLKIVLLGKIYAGTPRFFPLDFIVQFLEQQVCTLNWDVGFVIQTMNEIGVPLPRLLEVYDQLFKSRDPFWNRMKKPLHLLDCIHVLLIRYVENPSQVLNCERRRFTNLCLDAVCGYLVELQSMSSSVAVQAITGNFKSLQAKLERLH

binding (HA-Strep-tagged NUP58): binds | binding [1]: binds
B3: NUP54 (protein, UniProt Q7Z3B4 1-507)
chain: MAFNFGAPSGTSGTAAATAAPAGGFGGFGTTSTTAGSAFSFSAPTNTGTTGLFGGTQNKGFGFGTGFGTTTGTSTGLGTGLGTGLGFGGFNTQQQQQTTLGGLFSQPTQAPTQSNQLINTASALSAPTLLGDERDAILAKWNQLQAFWGTGKGYFNNNIPPVEFTQENPFCRFKAVGYSCMPSNKDEDGLVVLVFNKKETEIRSQQQQLVESLHKVLGGNQTLTVNVEGTKTLPDDQTEVVIYVVERSPNGTSRRVPATTLYAHFEQANIKTQLQQLGVTLSMTRTELSPAQIKQLLQNPPAGVDPIIWEQAKVDNPDSEKLIPVPMVGFKELLRRLKVQDQMTKQHQTRLDIISEDISELQKNQTTSVAKIAQYKRKLMDLSHRTLQVLIKQEIQRKSGYAIQADEEQLRVQLDTIQGELNAPTQFKGRLNELMSQIRMQNHFGAVRSEERYYIDADLLREIKQHLKQQQEGLSHLISIIKDDLEDIKLVEHGLNETIHIRGGVFS
